Earlier results in US6399580B1, “Methods and compositions for stimulating tissue growth and epithelial moisturization” (The Regents of the University of California, priority 1994, dated 2002).
Some results were stated once for a whole list of compounds, not compound by compound. At least one structure is not confirmed: it was looked up by name or label, or the drawing left a doubt.

System: β-glucosidase
Conditions: cited from earlier work

Row | Compound | less active inhibitors when compared with CBE
1 | OC[C@H]1NC[C@H](O)[C@@H](O)[C@@H]1O [dNJM, deoxynojirimycin] | 10-200 fold
2 | O[C@H]1[C@H](O)[C@@H](O)C=C[C@@H]1O [CB, Conduritol B] | 10-200 fold
